Consider one substance from publication PMC8102640.

By UniProt entry, the sequences of proteins in these tests, tags left out.
UniProt Q96CV9: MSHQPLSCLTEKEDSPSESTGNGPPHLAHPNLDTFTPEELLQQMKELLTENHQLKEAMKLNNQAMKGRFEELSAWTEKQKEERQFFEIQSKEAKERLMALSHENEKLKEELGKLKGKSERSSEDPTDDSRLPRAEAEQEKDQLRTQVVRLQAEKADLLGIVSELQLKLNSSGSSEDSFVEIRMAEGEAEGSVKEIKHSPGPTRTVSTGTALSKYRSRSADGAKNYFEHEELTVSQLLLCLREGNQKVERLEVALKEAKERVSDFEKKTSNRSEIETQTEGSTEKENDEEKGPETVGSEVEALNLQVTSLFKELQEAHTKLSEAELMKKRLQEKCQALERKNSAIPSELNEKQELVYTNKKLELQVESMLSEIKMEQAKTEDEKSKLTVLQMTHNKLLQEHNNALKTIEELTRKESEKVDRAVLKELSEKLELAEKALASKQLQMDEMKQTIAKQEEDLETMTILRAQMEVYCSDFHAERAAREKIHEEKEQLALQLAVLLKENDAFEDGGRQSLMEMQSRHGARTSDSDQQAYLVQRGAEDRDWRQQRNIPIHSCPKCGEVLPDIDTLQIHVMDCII

This experiment deals with T1, FLAG-tagged NRF2 (nuclear factor erythroid 2-related factor 2) (UniProt Q16236).
T1 sequence: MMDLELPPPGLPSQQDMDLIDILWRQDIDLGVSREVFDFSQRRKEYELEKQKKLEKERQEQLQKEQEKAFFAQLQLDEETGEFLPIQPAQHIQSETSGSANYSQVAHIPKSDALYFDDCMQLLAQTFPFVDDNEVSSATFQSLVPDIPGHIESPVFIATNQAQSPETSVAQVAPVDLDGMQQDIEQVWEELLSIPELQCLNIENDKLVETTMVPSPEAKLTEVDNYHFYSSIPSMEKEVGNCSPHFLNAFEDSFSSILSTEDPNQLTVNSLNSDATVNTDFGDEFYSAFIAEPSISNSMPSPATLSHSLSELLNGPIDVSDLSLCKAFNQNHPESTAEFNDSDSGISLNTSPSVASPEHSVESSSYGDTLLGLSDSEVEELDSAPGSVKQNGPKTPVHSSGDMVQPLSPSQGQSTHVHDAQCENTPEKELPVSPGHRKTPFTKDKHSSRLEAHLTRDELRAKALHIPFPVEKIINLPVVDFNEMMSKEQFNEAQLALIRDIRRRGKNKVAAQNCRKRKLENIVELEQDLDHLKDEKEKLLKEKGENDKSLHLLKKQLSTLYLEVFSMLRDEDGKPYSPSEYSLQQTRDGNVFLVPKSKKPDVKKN
The experiment can be described thus: co-IP; HEK293T cells co-transfected with FLAG-NRF2 and His-OPTN plasmids (2000 ng each per well), lysed in NP-40 buffer; lysate incubated with Anti-Flag M2 Affinity Gel for 24 h, washed five times with NP-40 buffer, immunoblot. On the technique in general: A western blot detects proteins with antibodies after separation by electrophoresis.

No constants are given. Whether binding was seen depends on the method and setting. In cells and extracts the contact can be indirect. Some binding calls cover weakened binding; strength is not graded here. Where a sequence is shown, tags or fusion partners need not be part of it.

Consider “His-tagged OPTN (optineurin) (from UniProt Q96CV9 1-577)”, for which the binding entry is listed as “binds”.
